This passage reports binding results from patent US20160257759A1.

No constants are given. Whether binding was seen depends on the method and setting.

Assay [1] concerns the target biotinylated human delta-like 2 (DLL2) (human). The assay can be described thus: ELISA, IgG (0.3 ug/ml) captured on anti-human lambda plate, biotinylated antigen titrated, neutravidin-AP.
Assay [2] has the same target. The assay can be described thus: condition: 1000 (relative amount of antigen, no unit); capture ELISA: B10 IgG captured on anti-human lambda, serially diluted biotinylated DLL2, neutravidin-AP, PNPP, absorbance.

B1: JG1B10 (antibody, V domains shown)
VH: EVQLVESGGGLVQPGGSLRLSCAASGSTFSSYGMHWVRQAPGKGLEWVAVIWYDGSNKYYADSVKGRFTISRDNSKNTLYLQMNSLRAEDTAVYYCARGYNHDYWGQGTLVTVSS
VL: LPVLTQPASVSGSPGQSITISCTGTSSDVGGYNYVSWYQQHPGKAPKLMIYDVSNRPSGVSNRFSGSKSGNTASLTISGLQAEDEADYYCSSYTSSSTYVFGIGTKLTVL
For the molecule B1, the binding entry in assay [1] and in assay [2] was “no binding” each time.
